At least one structure is not confirmed: it was looked up by name or label, or the drawing left a doubt.
Tests used:
HCoV-OC43 = type: cell-based, Human coronavirus OC43; conditions: Vero E6 cells, 20 μM pretreatment 1 hour, m.o.i. 0.01, 1, 2 and 3 d.p.i., compared to DMSO control
HCoV-229E [1] = type: cell-based, Human coronavirus 229E
SARS-CoV-2 = test: Immunofluorescence microscopy of spike and nucleocapsid proteins in SARS-CoV-2-infected LLC-MK2 cells; type: cell-based, Severe acute respiratory syndrome coronavirus 2; conditions: 20 μM pretreatment 1 hour, m.o.i. 0.01, 4 d.p.i., compared to infection control (0.08% DMSO)
HCoV-229E [2] = type: cell-based, Human coronavirus 229E; remark: listed apart in the source

`CCc1ccc(CCOc2ccc(CC3SC(=O)NC3=O)cc2)nc1` (stereo not shown) [pioglitazone] was tested, and the “viral yield (virus titer, log P.F.U./mL) of HCoV-OC43” value (HCoV-OC43) was “significantly lower”, the “viral yield (virus titer, log P.F.U./mL) of HCoV-229E” value (HCoV-229E [1]) was “significantly lower” and the “viral replication (expression of spike and nucleocapside proteins of SARS-CoV-2)” value (SARS-CoV-2) was “significantly reduced”. For the same compound, the “cell viability of HCoV-229E-infected LLC-MK2 cells” value (HCoV-229E [2]) was “increasing cell viability”.

— patent US20210386725A1, “METHOD FOR INHIBITING CORONAVIRUS INFECTION AND REPLICATION” (CHANG GUNG UNIVERSITY, priority 2020, published 2021)
